# From US9492404B2, “Compositions and methods for treatment of taupathy” (Revalesio Corporation, priority 2010, dated 2016)
# At least one structure is not confirmed: it was looked up by name or label, or the drawing left a doubt.
# Experiments:
# MMP = settings: sub-antibiotic levels; cited from earlier work
# [1] = system: LPS-stimulated microglial cells; assay: NO production and iNOS in LPS-stimulated microglial cells, with PI-3 kinase and Akt inhibitors; assay type: cell-based, mouse
Structure (SMILES),inhibition of MMP activity (MMP),effect on the RNS60-mediated inhibition on NF-κB activation [1],effect on the RNS60-mediated upregulation of IκBα protein and mRNA [1],effect on the inhibitory effect of RNS60 on the induction of iNOS [1]
C[C@H]1c2cccc(O)c2C(=O)C2=C(O)[C@]3(O)C(=O)C(C(N)=O)=C(O)[C@@H](N(C)C)[C@@H]3[C@@H](O)[C@@H]21 [Doxycycline],effectively inhibit,,,
O=c1cc(N2CCOCC2)oc2c(-c3ccccc3)cccc12 [LY294002],,eliminated,abolished,abrogated
CN(C)c1ccc(O)c2c1C[C@H]1C[C@H]3[C@H](N(C)C)C(O)=C(C(N)=O)C(=O)[C@@]3(O)C(O)=C1C2=O [Minocycline],effectively inhibit,,,
